Part of at least one peptide drawing is inferred or uncertain, most often the ends. Non-standard residues stand in square brackets, D forms with d. Residues, ends and D or L forms follow the SMILES beside them. sY = N[C@@H](Cc1ccc(OS(=O)(=O)O)cc1)C(=O)O
Columns and labels:
[1] = tested on: gp120 (BaL) binding to mAb F105; assay: Surface plasmon resonance, peptide effect on gp120 binding to control mAb F105; parameters: species or system HIV-1; details: peptide at 166 μM; specificity control
Description: (§1) The interaction of the tyrosine-sulfated V2 peptide with the 412d-binding site was further characterized by surface plasmon resonance (SPR).
(§2) Surface plasmon resonance. Recombinant gp120 from HIV-1 BaL (at 100 nM) obtained from the NIH AIDS Reagent Program was pre-incubated with or without a 2-fold molar excess of two-domain sCD4 (at 200 nM) and passed over a Biacore CM5 sensor surface in the presence or absence of the indicated peptides (at 166 μM) for 2 min at 25 μl/min in HBS supplemented with 3 mM EDTA and 0.005% Tween-20 followed by a 2 min dissociation phase using a Biacore 3000 biosensor (Biacore, Inc.). Surfaces were regenerated after each cycle by a brief injection of 4.5M MgCl2.

[2] = tested on: HIV-1 BaL virions captured by mAb 2G12; assay: HIV-1 virion-capture assay with control mAb 2G12-armed beads; format: binding; details: peptides at 50 μM
[3] = tested on: CD4-activated gp120 (BaL) binding to mAb 412d; assay: Surface plasmon resonance, peptide effect on gp120 binding to immobilized mAb 412d; parameters: species or system HIV-1; details: peptide at 166 μM; gp120 BaL 100 nM with sCD4
Description: as §1, §2

[4] = Rabbit immunization, serum ELISA against the peptides; format: in vivo, Rabbits; details: sera tested in ELISA at 1:200 final dilution
[5] = tested on: HIV-1 BaL virions captured by mAb 412d (CCR5-binding site at the base of V3); assay: HIV-1 virion-capture assay with mAb 412d-armed immunomagnetic beads; details: peptides at 50 μM; virions pre-treated with sCD4 5 μg/ml
Description: (§3) FIGS. 3A-3H are a series of graphs illustrating that a tyrosine-sulfated peptide containing the V2 α-helix binds to gp120, competes with an anti-CCR5-binding site antibody for HIV-1 virion binding, and blocks HIV-1 entry, infection and fusion. (A) Effect of tyrosine-sulfated V2-loop (pV2α-Tys) and CCR5 N-terminus (pCCR5-Tys) mimetic peptides on HIV-1 virion capture by mAb 412d, a sulfated mAb directed to the CCR5-binding site at the base of V3. Unsulfated homologous peptides (pV2α and pCCR5) were tested in parallel as controls. Infectious viral stocks from HIV-1 BaL were pre-treated with the peptides (each at 50 μM) and then incubated with immunomagnetic beads armed with mAb 412d; beads armed with mAb 2G12 (directed to a glycan-dependent epitope on the gp120 outer domain) were used in parallel as a control. Asterisks denote significant differences with the untreated control (p<0.05 by unpaired Student's t test). (B) Dose-dependent effect of peptides pV2α and pV2α-Tys on cell-free infection by HIV-1 BaL in primary CD4^+ T cells. […] (F) Binding of gp120 to immobilized peptide pV2α as assessed by surface plasmon resonance analysis. […] (H) Comparison between the experimentally determined V3 interaction of the tyrosine sulfated CDRH3 region of mAb 412d and the modeled V3 interaction of a tyrosine sulfated peptide derived from the central region of V2. […]

[6] = tested on: primary HIV-1 isolate (92HT599); assay: HIV-1 entry into activated primary human CD4+ T cells; format: cell-based; details: 50 μM, T20 control at 50 μg/mL
[7] = tested on: 5 primary and 4 laboratory-grown HIV-1 isolates; assay: Cell-free infection of purified CD4+ T cells by a panel of HIV-1 strains; format: cell-based; details: each peptide at 50 μM, different coreceptor usage and subtypes
HIV-1 BaL = format: cell-based; details: dose-dependent test, primary human CD4+ T cells
Description: as §3

[8] = ELISA of sera from HIV-1-infected individuals against the peptide; format: binding, human

| SMILES | inhibition of gp120 binding to mAb F105 [1] | inhibition of virion capture by mAb 2G12 [2] | inhibition of binding of surface-bound mAb 412d to CD4-activated gp120 [3] | immune response in immunized rabbits [4] | inhibition of virion capture by mAb 412d [5] | inhibition of HIV-1 entry [6] | inhibition of infection, breadth of antiviral activity [7] | inhibition of infection by HIV-1 BaL (HIV-1 BaL) | binding of HIV patient sera to the peptide ([8]; ELISA, sera at 1:50 final dilution) | patient sera binding to folded (biotin-captured) versus linear (plastic-bound) peptide ([8]; five patients, sera at 1:50) |
| --- | --- | --- | --- | --- | --- | --- | --- | --- | --- | --- |
| CC[C@H](C)[C@H](NC(=O)[C@H](CC(=O)O)NC(=O)[C@H](CC(C)C)NC(=O)[C@H](CCC(=O)O)NC(=O)[C@H](Cc1ccc(OS(=O)(=O)O)cc1)NC(=O)[C@H](Cc1ccccc1)NC(=O)[C@H](CC(C)C)NC(=O)[C@H](C)NC(=O)[C@H](Cc1ccc(OS(=O)(=O)O)cc1)NC(=O)[C@H](CCC(=O)O)NC(=O)[C@H](CCCCN)NC(=O)[C@H](CCC(N)=O)NC(=O)[C@@H](NC(=O)[C@@H](N)CCCCN)C(C)C)C(=O)N[C@H](C(=O)N1CCC[C@H]1C(=O)N[C@H](C(=O)N[C@@H](CC(=O)O)C(=O)O)[C@@H](C)CC)C(C)C [pV2α-Tys] (H-KVQKE[sY]ALF[sY]ELDIVPID-OH) | lack of inhibition | no inhibition | effectively inhibited binding | induced an immune response | potently inhibited | inhibited entry | all the isolates were inhibited |  |  |  |
| CC[C@H](C)[C@H](NC(=O)[C@H](CC(=O)O)NC(=O)[C@H](CC(C)C)NC(=O)[C@H](CCC(=O)O)NC(=O)[C@H](Cc1ccc(O)cc1)NC(=O)[C@H](Cc1ccccc1)NC(=O)[C@H](CC(C)C)NC(=O)[C@H](C)NC(=O)[C@H](Cc1ccc(O)cc1)NC(=O)[C@H](CCC(=O)O)NC(=O)[C@H](CCCCN)NC(=O)[C@H](CCC(N)=O)NC(=O)[C@@H](NC(=O)[C@@H](N)CCCCN)C(C)C)C(=O)N[C@H](C(=O)N1CCC[C@H]1C(=O)N[C@H](C(=O)N[C@@H](CC(=O)O)C(=O)O)[C@@H](C)CC)C(C)C [pV2α] (H-KVQKEYALFYELDIVPID-OH) |  | no inhibition | limited effect | induced an immune response | limited effect |  | limited, if any, activity | ineffective | specific binding activity | more specific binding activity for the folded peptide |
